# Measurements reported in the supplement of paper PMC8256030.
# “And” between values parts separate entries of the source, which are not always exact repeats. Identical values can stand only once. This is one part of the list. Repeats in this data set agree poorly, so a single value says little.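 HEK293T cells were given each compound shortly before transfection with a reporter in which red mCherry is followed by the SARS-CoV-2 frameshift element and then GFP in the −1 frame, so GFP appears only after frameshifting.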
# Tested on: SARS-CoV-2 -1 PRF reporter mCherry-FSE-GFP(-1)
# Experiment: mCherry (red) intensity as percent of control; higher = higher upstream reporter expression
# Settings: 10 µM; 24 h; HEK293T
row,Compound,mCherry
1,COc1cc([C@@H]2c3cc4c(cc3[C@@H](O[C@@H]3O[C@@H]5CO[C@@H](C)O[C@H]5[C@H](O)[C@H]3O)[C@H]3COC(=O)[C@H]23)OCO4)cc(OC)c1O [Etoposide],22.5%
2,CCOc1cc(NC(C)=O)ccc1C(=O)OC,92.7%
3,CC1(C)[C@H](C(=O)O)N2C(=O)C[C@H]2S1(=O)=O,110%
4,C/C=C/c1ccc(OC)cc1,117%
5,CC(C)NC[C@H](O)COc1cccc2ccccc12 [Propranolol S(-)],85.8%
6,N[C@@H](Cc1ccc(O)c(O)c1)C(=O)O [levodopa],92.4% and 114%
7,CC(=O)[C@H]1CC[C@H]2[C@@H]3CCC4=CC(=O)CC[C@]4(C)[C@H]3CC[C@]12C [progesterone],90.7% and 97%
8,NC(=O)C1CCN(CCCN2c3ccccc3Sc3ccc(Cl)cc32)CC1 [pipamazine],35.3%
9,CN1[C@@H]2CC[C@H]1CC(OC(=O)C(O)c1ccccc1)C2 (stereo not given in full),103%
10,C=C1CC[C@H](O)C/C1=C/C=C1\CCC[C@]2(C)[C@@H]([C@H](C)CCCC(C)C)CC[C@@H]12 [colecalciferol],109% and 87.7%
11,COC1=CC(=O)C[C@@H](C)[C@]12Oc1c(Cl)c(OC)cc(OC)c1C2=O [griseofulvin],107%
12,CN(C)CCCN1c2ccccc2Sc2ccc(C(F)(F)F)cc21 [triflupromazine],125%
13,CC1(C)[C@H](C(=O)O)N2C(=O)C[C@H]2S1(=O)=O [sulbactam],99.4%
14,O=C(O)c1cc(/N=N/c2ccc(S(=O)(=O)Nc3ccccn3)cc2)ccc1O [Sulfasalazine],88.5%
15,O=C(O)c1cc(/N=N/c2ccc(S(=O)(=O)Nc3ccccn3)cc2)ccc1O,116%
16,NC(=O)C(c1ccccc1)(c1ccccc1)[C@@H]1CCN(CCc2ccc3c(c2)CCO3)C1 [Enablex],148%
17,Cc1ncc(C[n+]2csc(CCO)c2C)c(N)n1 [Vitamin B1],117%
18,Oc1c(Cl)cc(Cl)cc1Sc1cc(Cl)cc(Cl)c1O,85.1%
19,CN1C(C(=O)Nc2ccccn2)=C(O)c2sccc2S1(=O)=O,126%
20,Cn1c(=O)c2[nH]cnc2n(C)c1=O [Aminophylline],113%

row,Compound,mCherry
1,O=c1[nH]cnc2c1ncn2[C@H]1CC[C@@H](CO)O1 [Didanosine],114%
2,Cn1c(=O)c2[nH]cnc2n(C)c1=O [aminophylline],80.5%
3,COc1cc([C@@H]2c3cc4c(cc3[C@@H](O[C@@H]3O[C@@H]5CO[C@@H](C)O[C@H]5[C@H](O)[C@H]3O)[C@H]3COC(=O)[C@H]23)OCO4)cc(OC)c1O,114%
4,"C/C=C/c1ccc(OC)cc1 [Anethole, trans-]",63.9%
5,C(=N\NC1=NCCN1)/c1c2ccccc2c(/C=N/NC2=NCCN2)c2ccccc12 [bisantrene],273%
6,Nc1ccc2cc3ccc(N)cc3nc2c1 [proflavine],65.2%
7,CCN(CC)C(=S)SSC(=S)N(CC)CC [disulfiram],42.4% and 57.7%
8,Cn1c(=O)c2c(ncn2C)n(C)c1=O [Caffeine],76.6%
9,Oc1ccc2ccccc2c1,122%
10,CC(C)NCC(O)COc1cccc2ccccc12 (stereo not given) [dibudinate],92%
11,CC1CCCC(C)N1CCCC(O)(c1ccccc1)c1ccccn1 (stereo not given) [pirmenol],94.5%
12,CN1C(C(=O)Nc2ccccn2)=C(O)c2sccc2S1(=O)=O [tenoxicam],123%
13,O=C(O)c1cccnc1 [nicotinic acid],78.2%
14,COc1ccc(CCN(C)CCC[C@](C#N)(c2ccc(OC)c(OC)c2)C(C)C)cc1OC [dexverapamil],106%
15,O=c1[nH]cnc2c1ncn2[C@H]1CC[C@@H](CO)O1 [didanosine],96.4%
16,O=C(C1CCCCC1)N1CC(=O)N2CCc3ccccc3C2C1 (stereo not given) [praziquantel],79.5% and 104%
17,C[n+]1c2cc(N)ccc2cc2ccc(N)cc21,40.2%
18,COc1ccc(CCN(C)CCCC(C#N)(c2ccc(OC)c(OC)c2)C(C)C)cc1OC (stereo not given) [verapamil],101% and 80.6%
19,CCc1cccc2cc(C(O)CNC(C)(C)C)oc12 (stereo not given) [bufuralol],68%
20,CC(C)NCC(O)COc1cccc2ccccc12 (stereo not given),125%
